In the supplement of paper PMC12823440, “Inhibitors supercharge kinase turnover through native proteolytic circuits” (Nature, 2025):
Where a name gives a salt, the structure may show the parent alone. This is one part of the list. Hit calls seldom repeat between salt and free forms of one compound.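 Kinases were expressed as nanoluciferase fusions in K562 cells and luminescence was read every 4 h between 2 and 18 h as percent of control, DMSO set to 100% and a positive control to 0%. A time point counts as decreased when the signal drops significantly (2 sigma). The hit call is the authors' own, does not follow from the count of time points alone, and its rule is not shown.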

The chains behind the UniProt entries cited, without tags or fusion partners. Where a name states a change or a piece, a line headed by the entry shows the natural chain unless it says otherwise.
UniProt P28482, whole entry: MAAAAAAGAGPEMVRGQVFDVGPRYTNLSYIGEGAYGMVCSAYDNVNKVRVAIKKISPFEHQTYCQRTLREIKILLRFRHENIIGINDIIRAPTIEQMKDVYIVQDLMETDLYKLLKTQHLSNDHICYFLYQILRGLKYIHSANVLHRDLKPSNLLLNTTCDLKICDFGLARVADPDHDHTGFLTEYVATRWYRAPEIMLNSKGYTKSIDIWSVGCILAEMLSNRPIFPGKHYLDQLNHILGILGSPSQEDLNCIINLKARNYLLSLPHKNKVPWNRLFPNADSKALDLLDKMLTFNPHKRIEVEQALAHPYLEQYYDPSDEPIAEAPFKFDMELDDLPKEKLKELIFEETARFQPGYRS
UniProt P31152, whole entry: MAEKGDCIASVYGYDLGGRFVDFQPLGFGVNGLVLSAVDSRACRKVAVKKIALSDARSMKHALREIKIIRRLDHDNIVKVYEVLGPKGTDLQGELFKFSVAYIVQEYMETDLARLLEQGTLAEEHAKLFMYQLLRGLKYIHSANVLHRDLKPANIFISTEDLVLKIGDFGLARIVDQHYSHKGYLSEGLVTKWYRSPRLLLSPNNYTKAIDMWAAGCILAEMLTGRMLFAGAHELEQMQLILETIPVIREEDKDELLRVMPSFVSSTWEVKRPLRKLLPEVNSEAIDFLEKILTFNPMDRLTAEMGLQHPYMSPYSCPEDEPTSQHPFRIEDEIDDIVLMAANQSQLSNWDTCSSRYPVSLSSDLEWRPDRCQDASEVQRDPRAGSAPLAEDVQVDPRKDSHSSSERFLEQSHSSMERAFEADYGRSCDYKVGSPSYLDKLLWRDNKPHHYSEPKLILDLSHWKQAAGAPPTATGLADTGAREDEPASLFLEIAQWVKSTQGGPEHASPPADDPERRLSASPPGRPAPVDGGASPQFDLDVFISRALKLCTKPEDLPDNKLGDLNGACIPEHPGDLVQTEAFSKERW
UniProt P49137, whole entry, looked up: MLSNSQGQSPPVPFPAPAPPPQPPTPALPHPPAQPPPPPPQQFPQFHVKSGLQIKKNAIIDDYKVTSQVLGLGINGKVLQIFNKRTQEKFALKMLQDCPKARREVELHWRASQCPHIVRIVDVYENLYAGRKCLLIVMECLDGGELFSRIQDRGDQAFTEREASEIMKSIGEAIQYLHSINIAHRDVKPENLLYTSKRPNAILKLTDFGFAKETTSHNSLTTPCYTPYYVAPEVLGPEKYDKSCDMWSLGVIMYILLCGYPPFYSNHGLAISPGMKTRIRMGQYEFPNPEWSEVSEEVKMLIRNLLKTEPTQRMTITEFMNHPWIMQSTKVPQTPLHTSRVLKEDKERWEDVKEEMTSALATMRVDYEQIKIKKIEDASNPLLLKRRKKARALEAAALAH
UniProt Q16620, whole entry, looked up: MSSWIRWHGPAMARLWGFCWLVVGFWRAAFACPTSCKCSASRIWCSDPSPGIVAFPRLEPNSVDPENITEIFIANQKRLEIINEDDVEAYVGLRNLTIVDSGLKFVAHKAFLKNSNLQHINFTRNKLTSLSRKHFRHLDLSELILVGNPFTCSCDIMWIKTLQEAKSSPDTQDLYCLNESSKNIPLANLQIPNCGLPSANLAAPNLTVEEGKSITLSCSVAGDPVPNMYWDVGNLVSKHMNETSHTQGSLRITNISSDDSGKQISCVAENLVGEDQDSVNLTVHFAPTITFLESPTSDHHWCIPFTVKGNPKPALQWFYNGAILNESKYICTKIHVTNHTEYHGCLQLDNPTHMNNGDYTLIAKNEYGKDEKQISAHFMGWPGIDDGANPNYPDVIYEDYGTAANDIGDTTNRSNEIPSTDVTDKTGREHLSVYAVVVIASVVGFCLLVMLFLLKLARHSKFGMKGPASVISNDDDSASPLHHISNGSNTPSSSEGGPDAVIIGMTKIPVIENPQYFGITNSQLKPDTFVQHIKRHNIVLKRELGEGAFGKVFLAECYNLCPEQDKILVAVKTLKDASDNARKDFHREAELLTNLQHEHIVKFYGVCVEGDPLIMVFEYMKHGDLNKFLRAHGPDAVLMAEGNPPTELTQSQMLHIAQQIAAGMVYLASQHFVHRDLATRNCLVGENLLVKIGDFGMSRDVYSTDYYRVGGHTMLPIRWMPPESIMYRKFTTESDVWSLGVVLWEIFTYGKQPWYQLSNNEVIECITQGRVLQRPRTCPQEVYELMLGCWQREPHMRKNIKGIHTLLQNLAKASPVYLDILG
UniProt Q16288, whole entry, looked up: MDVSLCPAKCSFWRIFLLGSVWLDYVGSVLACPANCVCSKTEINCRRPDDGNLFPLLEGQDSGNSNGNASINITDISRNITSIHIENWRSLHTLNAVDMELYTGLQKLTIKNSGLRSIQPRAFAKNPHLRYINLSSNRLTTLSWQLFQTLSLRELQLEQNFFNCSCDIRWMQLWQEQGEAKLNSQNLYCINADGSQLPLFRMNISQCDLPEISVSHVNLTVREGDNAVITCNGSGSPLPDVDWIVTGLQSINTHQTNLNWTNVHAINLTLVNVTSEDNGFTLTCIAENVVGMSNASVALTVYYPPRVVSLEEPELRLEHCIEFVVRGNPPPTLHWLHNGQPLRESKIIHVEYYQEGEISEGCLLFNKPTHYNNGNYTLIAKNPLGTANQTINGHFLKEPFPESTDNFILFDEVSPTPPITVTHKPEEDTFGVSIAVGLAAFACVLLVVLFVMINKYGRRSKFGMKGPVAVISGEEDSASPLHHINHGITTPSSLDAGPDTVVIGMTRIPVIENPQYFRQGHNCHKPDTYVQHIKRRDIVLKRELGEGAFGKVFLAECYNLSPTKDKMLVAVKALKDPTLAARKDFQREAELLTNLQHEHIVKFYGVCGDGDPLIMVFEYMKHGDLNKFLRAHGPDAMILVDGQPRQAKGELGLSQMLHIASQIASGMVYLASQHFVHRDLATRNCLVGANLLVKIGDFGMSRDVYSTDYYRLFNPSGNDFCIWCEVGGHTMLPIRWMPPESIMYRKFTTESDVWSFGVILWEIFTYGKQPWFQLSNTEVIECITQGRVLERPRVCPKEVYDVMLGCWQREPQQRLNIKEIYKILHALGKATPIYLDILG
UniProt Q96KB5: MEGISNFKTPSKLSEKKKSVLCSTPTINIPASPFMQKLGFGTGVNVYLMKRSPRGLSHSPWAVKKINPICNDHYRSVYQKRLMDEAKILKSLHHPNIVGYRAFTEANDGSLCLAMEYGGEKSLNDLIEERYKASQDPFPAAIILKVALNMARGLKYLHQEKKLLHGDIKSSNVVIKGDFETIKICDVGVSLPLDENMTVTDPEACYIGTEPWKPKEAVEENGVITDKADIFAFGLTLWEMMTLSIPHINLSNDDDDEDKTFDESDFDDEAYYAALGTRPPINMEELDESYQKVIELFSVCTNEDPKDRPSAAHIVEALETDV
UniProt P09619, whole entry: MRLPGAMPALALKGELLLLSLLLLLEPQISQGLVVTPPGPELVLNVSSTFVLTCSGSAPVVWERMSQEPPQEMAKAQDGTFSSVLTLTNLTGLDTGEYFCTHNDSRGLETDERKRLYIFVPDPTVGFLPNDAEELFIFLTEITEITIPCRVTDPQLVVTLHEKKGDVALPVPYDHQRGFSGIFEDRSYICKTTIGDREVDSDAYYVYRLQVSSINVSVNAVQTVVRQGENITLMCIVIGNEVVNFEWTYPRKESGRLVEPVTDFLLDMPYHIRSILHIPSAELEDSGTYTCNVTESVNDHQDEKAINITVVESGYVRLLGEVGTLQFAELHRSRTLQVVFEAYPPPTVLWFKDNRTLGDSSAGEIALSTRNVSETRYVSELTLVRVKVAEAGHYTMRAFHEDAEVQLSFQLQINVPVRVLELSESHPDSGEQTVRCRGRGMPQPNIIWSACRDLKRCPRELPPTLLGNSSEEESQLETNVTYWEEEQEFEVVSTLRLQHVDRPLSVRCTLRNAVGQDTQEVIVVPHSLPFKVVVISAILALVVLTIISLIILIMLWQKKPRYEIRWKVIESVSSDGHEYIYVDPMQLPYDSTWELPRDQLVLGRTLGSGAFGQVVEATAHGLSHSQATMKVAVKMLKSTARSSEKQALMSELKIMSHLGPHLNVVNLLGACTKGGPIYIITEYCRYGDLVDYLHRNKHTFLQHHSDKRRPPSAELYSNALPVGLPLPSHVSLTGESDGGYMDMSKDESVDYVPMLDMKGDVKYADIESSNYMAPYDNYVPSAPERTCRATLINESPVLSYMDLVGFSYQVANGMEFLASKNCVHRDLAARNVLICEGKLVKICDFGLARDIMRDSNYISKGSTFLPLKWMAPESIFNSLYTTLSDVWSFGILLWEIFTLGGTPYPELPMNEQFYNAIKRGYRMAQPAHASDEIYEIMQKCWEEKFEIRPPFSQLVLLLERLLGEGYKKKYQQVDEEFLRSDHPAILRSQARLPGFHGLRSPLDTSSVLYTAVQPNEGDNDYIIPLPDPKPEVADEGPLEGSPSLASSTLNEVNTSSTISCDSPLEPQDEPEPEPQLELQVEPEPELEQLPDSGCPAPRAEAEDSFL
UniProt Q15118, whole entry, looked up: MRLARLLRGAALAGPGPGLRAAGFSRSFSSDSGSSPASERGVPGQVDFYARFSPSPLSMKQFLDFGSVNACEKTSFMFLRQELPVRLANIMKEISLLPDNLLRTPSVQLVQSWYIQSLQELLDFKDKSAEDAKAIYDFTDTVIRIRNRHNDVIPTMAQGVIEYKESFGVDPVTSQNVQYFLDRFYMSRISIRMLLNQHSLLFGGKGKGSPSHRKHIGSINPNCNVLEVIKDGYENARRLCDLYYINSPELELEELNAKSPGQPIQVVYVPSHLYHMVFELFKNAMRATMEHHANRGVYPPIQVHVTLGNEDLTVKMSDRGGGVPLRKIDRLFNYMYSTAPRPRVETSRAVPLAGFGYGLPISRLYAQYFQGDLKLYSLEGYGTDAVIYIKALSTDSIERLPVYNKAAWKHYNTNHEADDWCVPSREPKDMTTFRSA
UniProt O15530: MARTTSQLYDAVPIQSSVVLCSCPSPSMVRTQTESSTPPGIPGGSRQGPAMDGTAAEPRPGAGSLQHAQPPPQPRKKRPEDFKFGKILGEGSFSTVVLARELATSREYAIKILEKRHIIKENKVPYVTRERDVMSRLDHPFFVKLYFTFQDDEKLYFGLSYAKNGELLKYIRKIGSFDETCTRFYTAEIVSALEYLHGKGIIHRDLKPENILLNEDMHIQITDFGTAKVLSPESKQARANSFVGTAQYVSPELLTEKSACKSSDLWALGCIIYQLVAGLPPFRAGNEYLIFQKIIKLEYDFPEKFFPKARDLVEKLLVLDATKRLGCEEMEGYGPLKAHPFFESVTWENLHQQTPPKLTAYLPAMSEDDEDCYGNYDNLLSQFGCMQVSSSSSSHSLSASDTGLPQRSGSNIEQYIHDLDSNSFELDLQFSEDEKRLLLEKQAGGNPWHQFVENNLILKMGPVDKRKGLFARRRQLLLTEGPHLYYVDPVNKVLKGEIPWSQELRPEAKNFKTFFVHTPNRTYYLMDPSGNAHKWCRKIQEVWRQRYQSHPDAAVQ
UniProt Q05397, whole entry, looked up: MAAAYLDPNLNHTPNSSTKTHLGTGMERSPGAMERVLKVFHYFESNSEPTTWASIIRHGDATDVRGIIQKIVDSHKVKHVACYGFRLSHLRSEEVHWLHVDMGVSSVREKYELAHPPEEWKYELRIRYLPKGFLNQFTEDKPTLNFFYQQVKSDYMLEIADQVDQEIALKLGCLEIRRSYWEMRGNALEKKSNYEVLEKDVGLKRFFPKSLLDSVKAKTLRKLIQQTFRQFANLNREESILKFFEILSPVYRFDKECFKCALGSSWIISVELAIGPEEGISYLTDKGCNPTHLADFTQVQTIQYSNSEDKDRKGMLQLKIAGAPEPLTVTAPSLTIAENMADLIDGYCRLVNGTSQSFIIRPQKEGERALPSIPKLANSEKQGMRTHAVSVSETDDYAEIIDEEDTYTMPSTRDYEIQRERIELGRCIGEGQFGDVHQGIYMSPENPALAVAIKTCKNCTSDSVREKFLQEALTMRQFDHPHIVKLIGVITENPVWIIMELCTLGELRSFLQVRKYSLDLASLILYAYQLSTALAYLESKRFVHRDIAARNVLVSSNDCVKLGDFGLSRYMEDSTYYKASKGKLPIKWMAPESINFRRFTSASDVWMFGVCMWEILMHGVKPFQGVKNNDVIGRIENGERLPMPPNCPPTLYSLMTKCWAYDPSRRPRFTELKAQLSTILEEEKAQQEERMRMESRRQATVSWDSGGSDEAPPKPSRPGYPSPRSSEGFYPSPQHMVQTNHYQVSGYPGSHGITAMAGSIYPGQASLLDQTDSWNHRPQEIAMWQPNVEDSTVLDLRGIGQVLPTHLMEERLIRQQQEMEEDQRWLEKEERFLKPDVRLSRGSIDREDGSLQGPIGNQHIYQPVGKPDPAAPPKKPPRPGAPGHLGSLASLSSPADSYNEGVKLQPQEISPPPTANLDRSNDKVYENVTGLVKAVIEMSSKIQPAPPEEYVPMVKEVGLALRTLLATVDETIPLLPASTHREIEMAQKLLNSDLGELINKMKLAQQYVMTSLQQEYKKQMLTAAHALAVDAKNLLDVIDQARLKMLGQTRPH

Experiments:
Test in all cases: kinase-Nluc reporter destabilization hit call (1 = scored as downregulated) (binary); higher = compound decreases kinase abundance
Details in all cases: K562, 2-18 h
[1] = biological target: MAPK1 (UniProt P28482)
[2] = biological target: MAPK4 (UniProt P31152)
[3] = biological target: MAPKAPK2 (UniProt P49137)
[4] = biological target: MKNK1 (UniProt Q9BUB5)
[5] = biological target: NTRK2 (UniProt Q16620)
[6] = biological target: NTRK3 (UniProt Q16288)
[7] = biological target: PAK4 (UniProt O96013)
[8] = biological target: PBK (UniProt Q96KB5)
[9] = biological target: PDGFRB (UniProt P09619)
[10] = biological target: PDK1 (UniProt Q15118)
[11] = biological target: PDPK1 (UniProt O15530)
[12] = biological target: PIK4CA (UniProt P42356)
[13] = biological target: PIK4CB (UniProt Q9UBF8)
[14] = biological target: PLK1 (UniProt P53350)
[15] = biological target: PRKAA1 (UniProt Q13131)
[16] = biological target: PRKCA (UniProt P17252)
[17] = biological target: PTK2 (UniProt Q05397)
[18] = biological target: PTK2B (UniProt Q14289)
[19] = biological target: RAF1 (UniProt P04049)
[20] = biological target: RAF1_S257L (clone: RAF1_mut) (UniProt P04049)

Measured: kinase-Nluc reporter destabilization hit call

Cc1cccc(/C=N/Nc2cc(N3CCOCC3)nc(OCCc3ccccn3)n2)c1 [Apilimod (mesylate)]
inactive: [1]; 10 µM 0 | [2]; 10 µM 0 | [3]; 10 µM 0 | [4]; 10 µM 0 | [5]; 10 µM 0 | [6]; 10 µM 0 | [7]; 10 µM 0 | [8]; 10 µM 0 | [9]; 10 µM 0 | [10]; 10 µM 0 | [11]; 10 µM 0 | [12]; 10 µM 0 | [13]; 10 µM 0 | [14]; 10 µM 0 | [15]; 10 µM 0 | [16]; 10 µM 0 | [17]; 10 µM 0 | [18]; 10 µM 0 | [19]; 10 µM 0 | [20]; 10 µM 0

C=CC(=O)Nc1cc(Nc2ncc(C(=O)OC(C)C)c(-c3cn(C)c4ccccc34)n2)c(OC)cc1N(C)CCN(C)C [Mobocertinib (succinate)]
inactive: [1]; 10 µM 0 | [2]; 10 µM 0 | [3]; 10 µM 0 | [4]; 10 µM 0 | [5]; 10 µM 0 | [6]; 10 µM 0 | [7]; 10 µM 0 | [8]; 10 µM 0 | [9]; 10 µM 0 | [10]; 10 µM 0 | [11]; 10 µM 0 | [12]; 10 µM 0 | [13]; 10 µM 0 | [14]; 10 µM 0 | [15]; 10 µM 0 | [16]; 10 µM 0 | [17]; 10 µM 0 | [18]; 10 µM 0 | [19]; 10 µM 0 | [20]; 10 µM 0

COC(=O)[C@H](CC(C)C)NC(=O)c1ccc(NC[C@@H](N)CS)cc1-c1cccc2ccccc12
inactive: [1]; 10 µM 0 | [2]; 10 µM 0 | [3]; 10 µM 0 | [4]; 10 µM 0 | [5]; 10 µM 0 | [6]; 10 µM 0 | [7]; 10 µM 0 | [8]; 10 µM 0 | [9]; 10 µM 0 | [10]; 10 µM 0 | [11]; 10 µM 0 | [12]; 10 µM 0 | [13]; 10 µM 0 | [14]; 10 µM 0 | [15]; 10 µM 0 | [16]; 10 µM 0 | [17]; 10 µM 0 | [18]; 10 µM 0 | [19]; 10 µM 0 | [20]; 10 µM 0

CS(=O)(=O)N1CCN(Cc2cc3nc(-c4cccc5[nH]ncc45)nc(N4CCOCC4)c3s2)CC1 [Pictilisib]
inactive: [1]; 10 µM 0 | [2]; 10 µM 0 | [3]; 10 µM 0 | [4]; 10 µM 0 | [5]; 10 µM 0 | [6]; 10 µM 0 | [7]; 10 µM 0 | [8]; 10 µM 0 | [9]; 10 µM 0 | [10]; 10 µM 0 | [11]; 10 µM 0 | [12]; 10 µM 0 | [13]; 10 µM 0 | [14]; 10 µM 0 | [15]; 10 µM 0 | [16]; 10 µM 0 | [17]; 10 µM 0 | [18]; 10 µM 0 | [19]; 10 µM 0 | [20]; 10 µM 0

COc1ccnc(C[S+]([O-])c2nc3cc(-n4cccc4)ccc3[nH]2)c1C (stereo not given) [Ilaprazole (sodium)]
inactive: [1]; 10 µM 0 | [2]; 10 µM 0 | [3]; 10 µM 0 | [4]; 10 µM 0 | [5]; 10 µM 0 | [6]; 10 µM 0 | [7]; 10 µM 0 | [8]; 10 µM 0 | [9]; 10 µM 0 | [10]; 10 µM 0 | [11]; 10 µM 0 | [12]; 10 µM 0 | [13]; 10 µM 0 | [14]; 10 µM 0 | [15]; 10 µM 0 | [16]; 10 µM 0 | [17]; 10 µM 0 | [18]; 10 µM 0 | [19]; 10 µM 0 | [20]; 10 µM 0

CCCCCCCCc1ccc(CCC(N)(CO)CO)cc1 [Fingolimod (hydrochloride)]
inactive: [1]; 2.5 µM 0 | [2]; 2.5 µM 0 | [3]; 2.5 µM 0 | [4]; 2.5 µM 0 | [6]; 2.5 µM 0 | [7]; 2.5 µM 0 | [8]; 2.5 µM 0 | [9]; 2.5 µM 0 | [10]; 2.5 µM 0 | [11]; 2.5 µM 0 | [12]; 2.5 µM 0 | [13]; 2.5 µM 0 | [14]; 2.5 µM 0 | [15]; 2.5 µM 0 | [16]; 2.5 µM 0 | [17]; 2.5 µM 0 | [18]; 2.5 µM 0 | [19]; 2.5 µM 0 | [20]; 2.5 µM 0

CCc1nc(C(N)=O)c(Nc2ccc(N3CCC(N4CCN(C)CC4)CC3)c(OC)c2)nc1NC1CCOCC1 [Gilteritinib hemifumarate]
inactive: [1]; 2 µM 0 | [2]; 2 µM 0 | [3]; 2 µM 0 | [4]; 2 µM 0 | [5]; 2 µM 0 | [6]; 2 µM 0 | [7]; 2 µM 0 | [8]; 2 µM 0 | [9]; 2 µM 0 | [10]; 2 µM 0 | [11]; 2 µM 0 | [12]; 2 µM 0 | [13]; 2 µM 0 | [14]; 2 µM 0 | [15]; 2 µM 0 | [17]; 2 µM 0 | [18]; 2 µM 0 | [19]; 2 µM 0 | [20]; 2 µM 0

N#CC[C@H](C1CCCC1)n1cc(-c2ncnc3[nH]ccc23)cn1 [Ruxolitinib]
inactive: [1]; 10 µM 0 | [2]; 10 µM 0 | [3]; 10 µM 0 | [4]; 10 µM 0 | [5]; 10 µM 0 | [7]; 10 µM 0 | [8]; 10 µM 0 | [9]; 10 µM 0 | [10]; 10 µM 0 | [11]; 10 µM 0 | [12]; 10 µM 0 | [13]; 10 µM 0 | [14]; 10 µM 0 | [15]; 10 µM 0 | [16]; 10 µM 0 | [17]; 10 µM 0 | [18]; 10 µM 0 | [19]; 10 µM 0 | [20]; 10 µM 0

C#Cc1cccc(Nc2ncnc3cc4c(cc23)OCCOCCOCCO4)c1 [Icotinib (Hydrochloride)]
inactive: [1]; 10 µM 0 | [2]; 10 µM 0 | [3]; 10 µM 0 | [4]; 10 µM 0 | [6]; 10 µM 0 | [7]; 10 µM 0 | [8]; 10 µM 0 | [9]; 10 µM 0 | [10]; 10 µM 0 | [11]; 10 µM 0 | [12]; 10 µM 0 | [13]; 10 µM 0 | [14]; 10 µM 0 | [15]; 10 µM 0 | [16]; 10 µM 0 | [17]; 10 µM 0 | [18]; 10 µM 0 | [19]; 10 µM 0 | [20]; 10 µM 0

CC(C)NC[C@@H](C(=O)N1CCN(c2ncnc3c2[C@H](C)C[C@H]3O)CC1)c1ccc(Cl)cc1 [Ipatasertib (dihydrochloride)]
inactive: [1]; 10 µM 0 | [2]; 10 µM 0 | [3]; 10 µM 0 | [4]; 10 µM 0 | [6]; 10 µM 0 | [7]; 10 µM 0 | [8]; 10 µM 0 | [9]; 10 µM 0 | [10]; 10 µM 0 | [11]; 10 µM 0 | [12]; 10 µM 0 | [13]; 10 µM 0 | [14]; 10 µM 0 | [15]; 10 µM 0 | [16]; 10 µM 0 | [17]; 10 µM 0 | [18]; 10 µM 0 | [19]; 10 µM 0 | [20]; 10 µM 0

CN(C)C(=N)NC(=N)N [Metformin (hydrochloride)]
inactive: [1]; 10 µM 0 | [2]; 10 µM 0 | [3]; 10 µM 0 | [4]; 10 µM 0 | [5]; 10 µM 0 | [6]; 10 µM 0 | [7]; 10 µM 0 | [8]; 10 µM 0 | [9]; 10 µM 0 | [10]; 10 µM 0 | [11]; 10 µM 0 | [12]; 10 µM 0 | [13]; 10 µM 0 | [14]; 10 µM 0 | [15]; 10 µM 0 | [16]; 10 µM 0 | [17]; 10 µM 0 | [18]; 10 µM 0 | [19]; 10 µM 0 | [20]; 10 µM 0
